# Measurements reported in PubChem BioAssay AID540256 (National Center for Advancing Translational Sciences (NCATS), 2011).
# Among all 300,000 compounds or so, about 3,700 (1.2%) were called active. Inconclusive means that the source gave no clear call. Such entries were picked first, then a sample of the others. The call rests on the fitted dose curve; tested in HEK293 cells. Potencies beside an inconclusive call are fits to weak or partial responses and may not hold up.
# Test: qHTS for Inhibitors of binding or entry into cells for Lassa Virus; further: nearly all actives have a fitted effect of over 50% in size
# Conditions: Lassa virus pseudotype entry inhibition, cell reporter; activity change, negative = inhibition: at 37.9 µM (top of the series) unless noted
# On the % scale 0 is the no-effect control and ±100 the full control effect; potency means the concentration at half of the fitted maximal effect.
Compound,"activity change, negative = inhibition",Potency
COc1ccc(-n2c(=O)c3ccc(C(=O)NCc4ccc(C)cc4)cc3n(Cc3ccc(C)cc3)c2=O)cc1,inactive: -0.939% [at 46.1 µM],–
c1ccc(CNC2CN3CCC2CC3)cc1 (configuration not stated),inactive: 1.54% [at 46.1 µM],–
C/C(=N\NC(=O)c1ccc(Cl)c(Cl)c1)c1ccccn1,–,active: 5.62 µM
NCCCS(=O)(=O)O,–,"inconclusive: 11.6 µM [inhibitor, partial curve, poor fit]"
Cc1ccccc1CNCCSc1nnnn1-c1ccccc1,inactive: 26.6% [at 46.1 µM],–
Cc1ccc(-n2c(=O)c3ccc(C(=O)NCc4ccco4)cc3n(Cc3ccc(Cl)cc3)c2=O)cc1,inactive: -14.4% [at 46.1 µM],–
CCOC(=O)CSc1nc2sc(C)c(C)c2c(=O)n1C,–,"inconclusive: 6.51 µM [activator, partial curve, poor fit]"
Cc1ccn2c(Nc3ccc4c(c3)OCO4)c(-c3ccccn3)nc2c1,–,"inconclusive: 0.251 µM [inhibitor, partial curve, poor fit]"
COc1ccc2[nH]c(-c3ccc(C)cc3)cc(=O)c2c1,–,active: 4.11 µM
Oc1ccc2ccccc2c1/C=N/c1nc2c(s1)CCCC2,–,"inconclusive: 10 µM [inhibitor, partial curve, poor fit]"
COc1ccc(CCNC(=O)c2cccc([N+](=O)[O-])c2)cc1OC,inactive: 3.82% [at 46.1 µM],–
Cc1ccsc1C1Nc2ccc3ncccc3c2C2=C1C(=O)CC(C)(C)C2 (configuration not stated),–,"inconclusive: 23.1 µM [inhibitor, single point]"
c1ccc(-n2ncc3c(N4CCN(CCOc5cccc6ccccc56)CC4)ncnc32)cc1,–,"inconclusive: 29.1 µM [inhibitor, single point]"
O=C1CCN(Cc2ccco2)C(=S)N1,inactive: 0.611% [at 46.1 µM],–
Oc1ccc2oc3c(c2c1C=NCc1ccncc1)CCCC3,–,"inconclusive: 17.8 µM [inhibitor, partial curve, poor fit]"
O=[N+]([O-])c1ccccc1S(=O)(=O)n1cnc2ccccc21,inactive: -6.2%,–
Cc1onc(-c2ccccc2Cl)c1C(=O)OCC(=O)Nc1ccc2c(c1)OCO2,inactive: 4.21%,–
CCn1c2ccccc2c2cc(NC(=O)COc3ccc(OC)cc3)ccc21,inactive: -12.1%,–
O=C(NNC1CC(=O)N(c2cccc(Cl)c2)C1=O)c1cccs1 (configuration not stated),–,"inconclusive: 0.794 µM [inhibitor, partial curve, poor fit]"
CCOC(=O)n1cc(-c2cnc(CNC(=O)C(C)(c3ccccc3)c3ccccc3)o2)c2ccccc21,–,"inconclusive: 0.82 µM [inhibitor, full curve, poor fit]"
O=C(N/N=C\C=C\c1ccc2c(c1)OCO2)C1COc2cc3ccccc3cc2O1 (configuration not stated),–,"inconclusive: 11.2 µM [inhibitor, single point]"
CCCCN(CC)CCNC(=O)c1ccc2c(Cl)c3c(nc2c1)CCC3,–,"inconclusive: 35.5 µM [inhibitor, single point]"
Cc1ccc(C(C)C)c(OCC(O)CN(C)Cc2ccccc2)c1 (configuration not stated),–,"inconclusive: 28.2 µM [inhibitor, single point]"
Cc1ccsc1C(=O)NCCC(c1ccccc1)c1ccccc1,–,"inconclusive: 11.2 µM [inhibitor, partial curve, poor fit]"

Compound,"activity change, negative = inhibition",Potency
Cc1cc(C)n2nc(C(=O)Nc3ccc4c(c3)OCO4)nc2n1,–,"inconclusive: 0.794 µM [activator, full curve, poor fit]"
CCCc1cc(=O)[nH]c(SCc2nc3ccc([N+](=O)[O-])cc3[nH]2)n1,inactive: -0.335%,–
O=C(Nc1cccc(S(=O)(=O)NCc2ccco2)c1)c1cc(-c2ccccc2)nc2ccccc12,–,"inconclusive: 29.1 µM [inhibitor, single point]"
CCC(C)C1=CC(=Nc2c(C)n(C)n(-c3ccccc3)c2=O)C=C(C(C)CC)C1=O (configuration not stated),inactive: 20% [at 46.1 µM],–
CC1CCc2c(sc(NC(=O)c3cc4nc(-c5ccc(Cl)cc5)cc(C(F)(F)F)n4n3)c2C#N)C1 (configuration not stated),inactive: 15.6% [at 46.1 µM],–
CNC(=O)c1cccc(NC(=O)c2ccccc2OCc2ccccc2)c1,inactive: -8.54%,–
Cc1ccc(/C=C/c2nc3ccccc3[nH]2)o1,–,"inconclusive: 15.8 µM [inhibitor, single point]"
COCCn1c(C)cc(C(=O)COc2cccnc2[N+](=O)[O-])c1C,inactive: 6.67% [at 46.1 µM],–
Cc1cs/c(=N/C(=S)Nc2ccccc2)n1C,–,"inconclusive: 8.91 µM [inhibitor, partial curve]"
Cc1ccccc1Oc1cc(NC(=O)CCCn2nc(C)c([N+](=O)[O-])c2C)cc([N+](=O)[O-])c1,inactive: -18.5%,–
COc1ccc(OC)c(C(=O)c2coc3ccc(OC(C)=O)cc23)c1,–,active: 11.2 µM
Cc1ccc(C(=O)OCC(=O)Nc2nc(-c3ccccc3)cs2)cc1NC(=O)c1ccco1,–,"inconclusive: 11.2 µM [inhibitor, single point]"
CCCCC(=NCCc1c(C)[nH]c2ccccc12)C1=C(O)CC(c2ccccc2)CC1=O (configuration not stated),–,active: 8.91 µM
Cc1cc(=O)n(CC(=O)N2CCN(c3ccc(F)cc3)CC2)c2c1c(C)nn2C,–,"inconclusive: 7.94 µM [inhibitor, partial curve, poor fit]"
CCOC(=O)CN(Cc1sccc1C)C(=O)Nc1cccc(OC)c1,inactive: 12.7%,–
O=C(Oc1ccc(Br)cc1C(=S)N1CCCC1)c1ccccc1Cl,–,"inconclusive: 1.16 µM [activator, partial curve, poor fit]"
O=C(NCCS(=O)(=O)NCc1ccc(F)cc1)c1ccccc1,–,"inconclusive: 3.55 µM [inhibitor, full curve]"
CCOc1ccc(N2CC(C(=O)NCc3nnnn3-c3ccc(C)c(C)c3)CC2=O)cc1 (configuration not stated),–,"inconclusive: 14.1 µM [inhibitor, single point]"
Nc1[nH]nc2nc3ccccc3cc12,inactive: 19.7%,–
CC(=O)c1ccc(N2CCN(C(=O)c3cc4c(s3)CCCC4)CC2)cc1,inactive: -17.8% [at 46.1 µM],–
CC(=O)c1ccc(N2CCN(C(=O)CCS(=O)(=O)c3ccc4c(c3)oc(=O)n4C)CC2)cc1,–,"inconclusive: 15.8 µM [activator, single point]"
COc1cc2[nH]c(C(=O)N3CC(C)OC(C)C3)cc2c(OC)c1OC (configuration not stated),inactive: 11.2%,–
CNC(=O)CN(c1ccc(F)cc1)S(=O)(=O)c1cc(C)ccc1OC,inactive: 5.76%,–
CCOc1ccccc1NC(=O)C(C)N(c1ccccc1)S(C)(=O)=O (configuration not stated),inactive: 10.4% [at 46.1 µM],–

# Single records (already shown):
# CCCc1cc(=O)[nH]c(SCc2nc3ccc([N+](=O)[O-])cc3[nH]2)n1 as listed: activity change, negative = inhibition: inactive: -0.335%
# O=C(NCCS(=O)(=O)NCc1ccc(F)cc1)c1ccccc1 as listed: Potency: inconclusive: 3.55 µM [inhibitor, full curve]
# Cc1ccccc1CNCCSc1nnnn1-c1ccccc1 as listed: activity change, negative = inhibition: inactive: 26.6% [at 46.1 µM]

# Following part:

Compound,"activity change, negative = inhibition",Potency
O=S(=O)(c1ccc(Cl)cc1)N1CCN(C2CCCCCC2)CC1,–,"inconclusive: 1.26 µM [inhibitor, single point]"
Cc1ccc(NCCC(=O)c2ccc(Cl)cc2)cc1C,inactive: 16.3%,–
COc1cc(/C=C/c2nc(C#N)c(N3CCC(C)CC3)o2)cc(OC)c1OC,inactive: -14.2% [at 46.1 µM],–
O=C(O)c1ccc(NC2=C/C(=N/S(=O)(=O)c3ccccc3)c3ccccc3C2=O)cc1,–,active: 7.08 µM
O=C(N/N=C\c1cccc(Cl)c1)c1ccc(Cn2cc(Br)c([N+](=O)[O-])n2)o1,–,"inconclusive: 23.1 µM [inhibitor, single point]"
CCOC(=O)c1ccc(OC(=O)c2cn(-c3cccc(OC)c3)c(=O)c3ccccc23)cc1,–,"inconclusive: 15.8 µM [inhibitor, single point]"
C/C(=N\NC(=O)CSCc1ccc([N+](=O)[O-])cc1)c1ccccc1O,–,"inconclusive: 2.59 µM [inhibitor, full curve, poor fit]"
COc1cc(SC)ccc1C(=O)Nc1ccc2c(c1)OCO2,–,"inconclusive: 5.62 µM [inhibitor, single point]"
CCOC(=O)N1CCN(Cc2nc(N)nc(Nc3ccc(OC)cc3)n2)CC1,inactive: 7.73%,–
Cc1ccc(Cn2c(=S)[nH]c3ccc(N4CCOCC4)cc3c2=O)o1,–,"inconclusive: 14.6 µM [inhibitor, single point]"
Cc1cccc(Cc2c(C)nc3nc(SCC(=O)NCc4ccco4)nn3c2C)c1,–,"inconclusive: 32.6 µM [inhibitor, single point]"
FC(F)(F)c1cc(-c2ccccc2)nc(NCc2cccnc2)n1,–,"inconclusive: 18.3 µM [inhibitor, partial curve, poor fit]"
COC(=O)N1CCN(C(=O)Cc2ccc(Cl)c(Cl)c2)C(CN2CCCC2)C1 (configuration not stated),–,"inconclusive: 0.0046 µM [inhibitor, full curve, poor fit]"
Cc1cc(-c2nnc(SCC(=O)Nc3ccc(F)cc3F)n2N)n[nH]1,inactive: 12.9% [at 46.1 µM],–
O=C(NNC(=O)c1ccc(Cl)c(Cl)c1)c1ccncc1,inactive: 4.1%,–
Cc1cccc2sc(NC(=O)C3c4ccccc4Oc4ccccc43)nc12,–,"inconclusive: 29.1 µM [inhibitor, single point]"
Cc1cc(C)cc(C(=O)N(NC(=O)Nc2ccc(Cl)cc2)C(C)(C)C)c1,–,"inconclusive: 35.5 µM [inhibitor, single point]"
COCC(C)n1c(SCC(=O)NC(=O)NCc2ccccc2)nc2ccccc2c1=O (configuration not stated),–,"inconclusive: 35.5 µM [inhibitor, single point]"
O=C(N/N=C/c1ccco1)C(O)C(O)C(=O)N/N=C/c1ccco1 (configuration not stated),inactive: 7.38% [at 46.1 µM],–
Cn1c(=O)c(=O)n(C)c2cc(S(=O)(=O)NCCOc3ccccc3)ccc21,–,"inconclusive: 20.6 µM [activator, partial curve]"
Cc1ccc(Cl)cc1NC(=O)CN1C(=O)C(C)(C)c2cc(S(=O)(=O)N3CCCCC3)ccc21,–,"inconclusive: 35.5 µM [inhibitor, single point]"
O=C(CN1CCN(c2ccc(F)cc2)CC1)Nc1ccc(S(=O)(=O)N2CCOCC2)cc1,–,"inconclusive: 11.2 µM [inhibitor, partial curve, poor fit]"
CCc1ccc(/C=N\NC(=O)c2ccc(Br)o2)s1,–,"inconclusive: 11.2 µM [inhibitor, single point]"
CC(C)(C)OC(=O)N1CCN(C(=O)Nc2ccc3c(c2)OCCO3)CC1,inactive: 12.4%,–
